These are yes or no findings as the source states them, for the method shown. Binding seen in cells or lysates may run through a third protein. Some results given as binding are weak or reduced against the parent protein; the word gives no strength.
Target: Integrin β1 (ITGB1) (UniProt P05556)
Test: pull-down; GST pull-down of GMFG and ITGB1; bait, prey and conditions not told in the main text (Supplementary Methods)

Chains of the proteins cited; added tags and fusions are not shown.
UniProt P05556: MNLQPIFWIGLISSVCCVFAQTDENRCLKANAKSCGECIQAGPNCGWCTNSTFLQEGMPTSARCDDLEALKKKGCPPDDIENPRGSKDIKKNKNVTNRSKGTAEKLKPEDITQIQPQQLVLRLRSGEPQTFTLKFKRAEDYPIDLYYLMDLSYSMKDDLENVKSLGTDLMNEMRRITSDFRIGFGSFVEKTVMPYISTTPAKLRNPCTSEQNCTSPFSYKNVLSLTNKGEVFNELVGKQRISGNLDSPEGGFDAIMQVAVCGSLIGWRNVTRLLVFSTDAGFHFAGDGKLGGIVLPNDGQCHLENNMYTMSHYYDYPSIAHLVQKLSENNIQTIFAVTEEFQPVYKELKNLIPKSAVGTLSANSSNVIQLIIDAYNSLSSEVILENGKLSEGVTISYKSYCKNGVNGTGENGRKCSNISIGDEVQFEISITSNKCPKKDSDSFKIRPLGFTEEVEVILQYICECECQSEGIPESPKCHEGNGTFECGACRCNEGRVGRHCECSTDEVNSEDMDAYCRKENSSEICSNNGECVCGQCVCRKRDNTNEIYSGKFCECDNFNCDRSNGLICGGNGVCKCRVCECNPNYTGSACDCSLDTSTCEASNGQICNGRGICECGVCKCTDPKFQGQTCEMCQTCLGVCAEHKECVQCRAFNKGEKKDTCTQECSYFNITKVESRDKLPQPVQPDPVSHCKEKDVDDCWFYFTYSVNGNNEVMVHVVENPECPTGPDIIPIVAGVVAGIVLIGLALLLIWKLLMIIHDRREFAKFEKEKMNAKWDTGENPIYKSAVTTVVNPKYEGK

GMFG (from UniProt O60234 1-142)
binding: binds
